Reference: article PMC7285321, “Evaluation of Indolocarbazoles from Streptomyces sanyensis as a Novel Source of Therapeutic Agents against the Brain-Eating Amoeba Naegleria fowleri” (Microorganisms, 2020)

System: Naegleria fowleri ATCC 30808 trophozoites
Assay: In vitro amoebicidal activity, alamarBlue colorimetric assay, trophozoites
Conditions: ATCC30808, read-out: IC90 N. fowleri ATCC 30808
Protocol: Amoebae were grown at 37 °C in axenic conditions in 2% (w/v) bactocasitone medium (Thermo Fisher Scientific, Madrid, Spain) supplemented with 10% (v/v) foetal bovine serum (FBS), […] of penicillin G and 0,5 mg/mL of streptomycin sulphate (Sigma-Aldrich, Madrid, Spain). As required by the Spanish Government biosafety guidelines for this pathogen, amoebic strains were cultured in a biological security facility level 3 at the Instituto Universitario de Enfermedades Tropicales y Salud Pública de Canarias, Universidad de La Laguna.
The in vitro activity of the four ICZs included in this study was evaluated against trophozoites of two Naegleria fowleri type strains using a colorimetric assay. Amoebae (2 × 10^5 cells/mL) were placed in a sterile 96-well microtiter plate. Next, 50 μL of a serial dilution of each of the ICZs (in N. fowleri culture medium) was added to the plate. […] After that, activity plates were evaluated with an EnSpire® Multimode Plate Reader (Perkin Elmer, Madrid, Spain) using a wavelength of 570 nm and a reference wavelength of 630 nm.
The IC90 values of the compounds were calculated using a GraphPad calculator (GraphPad Software, San Diego, CA, USA) based on the calculated IC50 and the Hill Slope (H). All experiments were performed in triplicate, and the mean values were also calculated.

Structure (SMILES): CN[C@@H]1C[C@H]2O[C@@](C)([C@@H]1OC)n1c3ccccc3c3c4c(c5c6ccccc6n2c5c31)C(=O)NC4 [STS (1), staurosporine]
- IC90: 580 nM
